Results reported in paper PMC7931232.
No constants are given. Whether binding was seen depends on the method and setting.

Tests used:
[1] = target: OSM-3 1-337 construct (core motor domain and 10 additional C-terminal residues) (Caenorhabditis elegans) (UniProt P46873); experiment: SEC-MALS; Superdex 200 Increase 10/300 GL in 25 mM Pipes-K pH 6.8, 100 mM NaCl, 2 mM MgCl2, 1 mM EGTA, 25 uM ATP; 100 uL samples at about 2 mg/mL OSM-3; both purified
[2] = target: OSM-3 1-362 construct (core motor domain and 35 additional C-terminal residues) (Caenorhabditis elegans) (UniProt P46873); experiment: as above

| binding [1] | binding [2] | Binder |
| --- | --- | --- |
| no binding (tested: about 2 mg·mL^−1) | – | OSM-3 1-337 construct (core motor domain and 10 additional C-terminal residues) (domain or fragment, UniProt P46873-1 1-337) MAAESVRVAVRCRPFNQREKDLNTTLCVGMTPNVGQVNLNAPDGAAKDFTFDGAYFMDSTGEQIYNDIVFPLVENVIEGYNGTVFAYGQTGSGKTFSMQGIETIPAQRGVIPRAFDHIFTATATTENVKFLVHCSYLEIYNEEVRDLLGADNKQKLEIKEQPDRGVYVAGLSMHVCHDVPACKELMTRGFNNRHVGATLMNKDSSRSHSIFTVYVEGMTETGSIRMGKLNLVDLAGSERQSKTGATGDRLKEATKINLSLSALGNVISALVDGKSKHIPYRDSKLTRLLQDSLGGNTKTIMIACVSPSSDNYDETLSTLRYANRAKNIKNKPTINEDP |
| – | no binding (tested: about 2 mg·mL^−1) | OSM-3 1-362 construct (core motor domain and 35 additional C-terminal residues) (domain or fragment, UniProt P46873-1 1-362) MAAESVRVAVRCRPFNQREKDLNTTLCVGMTPNVGQVNLNAPDGAAKDFTFDGAYFMDSTGEQIYNDIVFPLVENVIEGYNGTVFAYGQTGSGKTFSMQGIETIPAQRGVIPRAFDHIFTATATTENVKFLVHCSYLEIYNEEVRDLLGADNKQKLEIKEQPDRGVYVAGLSMHVCHDVPACKELMTRGFNNRHVGATLMNKDSSRSHSIFTVYVEGMTETGSIRMGKLNLVDLAGSERQSKTGATGDRLKEATKINLSLSALGNVISALVDGKSKHIPYRDSKLTRLLQDSLGGNTKTIMIACVSPSSDNYDETLSTLRYANRAKNIKNKPTINEDPKDALLREYQEEIARLKSMVQPGAVG |
